## Results of single-concentration screens

The chains behind the UniProt entries cited, without tags or fusion partners. Residues count along the entry.
UniProt P9WPC5, whole entry: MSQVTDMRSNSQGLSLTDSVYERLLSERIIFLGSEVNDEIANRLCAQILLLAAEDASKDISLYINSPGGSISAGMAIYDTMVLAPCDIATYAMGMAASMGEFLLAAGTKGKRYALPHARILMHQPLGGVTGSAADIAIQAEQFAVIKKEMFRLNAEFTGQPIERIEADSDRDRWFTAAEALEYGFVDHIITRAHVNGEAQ
UniProt P9WPC3, whole entry partner: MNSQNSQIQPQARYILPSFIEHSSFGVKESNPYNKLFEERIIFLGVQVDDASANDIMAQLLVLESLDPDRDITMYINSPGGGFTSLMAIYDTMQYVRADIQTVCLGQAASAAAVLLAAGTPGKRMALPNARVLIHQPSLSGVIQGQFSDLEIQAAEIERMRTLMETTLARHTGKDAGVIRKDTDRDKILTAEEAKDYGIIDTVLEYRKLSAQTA
UniProt P9WFT3, whole entry: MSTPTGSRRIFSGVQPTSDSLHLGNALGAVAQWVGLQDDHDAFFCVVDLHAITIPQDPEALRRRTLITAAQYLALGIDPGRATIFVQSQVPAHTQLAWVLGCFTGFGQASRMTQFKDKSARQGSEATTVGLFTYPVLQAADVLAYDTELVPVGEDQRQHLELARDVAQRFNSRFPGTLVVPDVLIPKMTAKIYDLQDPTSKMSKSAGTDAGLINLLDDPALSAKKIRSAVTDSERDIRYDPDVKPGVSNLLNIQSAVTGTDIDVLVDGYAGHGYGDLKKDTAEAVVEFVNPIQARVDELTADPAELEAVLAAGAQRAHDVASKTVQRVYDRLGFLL
UniProt Q8IDJ8, 1-583: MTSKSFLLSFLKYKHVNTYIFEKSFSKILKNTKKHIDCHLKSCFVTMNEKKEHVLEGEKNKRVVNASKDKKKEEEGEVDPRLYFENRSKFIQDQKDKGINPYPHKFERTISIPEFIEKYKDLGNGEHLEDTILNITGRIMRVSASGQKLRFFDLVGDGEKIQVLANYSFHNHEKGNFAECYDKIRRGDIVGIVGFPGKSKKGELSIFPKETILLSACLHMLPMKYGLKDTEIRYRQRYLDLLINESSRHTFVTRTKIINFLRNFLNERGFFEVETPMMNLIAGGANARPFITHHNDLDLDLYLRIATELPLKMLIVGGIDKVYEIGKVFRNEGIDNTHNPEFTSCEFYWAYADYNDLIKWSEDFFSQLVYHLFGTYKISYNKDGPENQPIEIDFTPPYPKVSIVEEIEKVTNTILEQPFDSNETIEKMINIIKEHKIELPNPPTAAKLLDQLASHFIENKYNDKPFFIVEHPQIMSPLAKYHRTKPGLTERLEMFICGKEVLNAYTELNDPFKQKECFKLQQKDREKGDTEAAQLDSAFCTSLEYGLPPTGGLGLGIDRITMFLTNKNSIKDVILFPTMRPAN

Source: ChEMBL document CHEMBL3988442, “University of Dundee, Small-Polar-MMV Screening Library” (2021).

ClpP1P2: 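ClpP1P2, Mycobacterium tuberculosis (UniProt P9WPC5 and UniProt P9WPC3). Protease assay of ClpP1P2, read by the AMC dye that it sets free. Concentration: 50 µM. Direction is inferred from only a few compounds that gave an IC50; most scored high, so higher reads as stronger inhibition. Most other retested compounds had strongly negative values. Size under these conditions: about 69,000 compounds, about 10 of them at 50% or above in at least one test.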
MtTrpRS: 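Enzyme assay of tryptophanyl-tRNA synthetase; the read-out is not stated. Target: Tryptophan-tRNA ligase, Mycobacterium tuberculosis (UniProt P9WFT3). Tested at 10 µM. Direction is not recorded; retested compounds ran higher, which suggests that high means inhibition. Of about 65,000 compounds tested this way, about 64 (0.098%) reached 50% or more in at least one test.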
PfKRS1: 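Enzyme assay of the cytosolic lysyl-tRNA synthetase in 384-well plates, read by luminescence. Target: Lysine-tRNA ligase, Plasmodium falciparum 3D7 (UniProt Q8IDJ8). Tested at 30 µM. Higher reads as stronger inhibition, judged from the few compounds that gave an IC50. Of about 69,000 compounds tested this way, about 49 (0.071%) reached 50% or more in at least one test.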

Values are the deposited “Percent Effect”, in %. The controls that fix the scale are not given in the record; negative values are as filed. This is an unselected part of the compounds tested. A dash means the value is not listed here; it may have been measured.

Compound | ClpP1P2 | MtTrpRS | PfKRS1
CCOCC(O)CN1CCN(C(=O)C2CCCCC2)CC1 (stereo not drawn) | -16.39 | -4.944 | -0.8257
O=C(O)C1c2nc[nH]c2CCN1Cc1cc(-c2ccccc2)no1 (stereo not drawn) | -20.2 | 4.816 | -1.994
COCCn1cncc1Cn1ncc2ccccc2c1=O | 4.512 | -3.915 | 0.489
COCCN1C[C@@H](C)[C@@]2(COCCN(C(=O)c3ccoc3)C2)C1 | -7.414 | -7.528 | 6.946
CC(C)(C)CN1CC(O)CN(C(=O)c2cccc(C(F)(F)F)c2)CC1=O (stereo not drawn) | 11.04 | - | 4.896
CC(=O)N1CCN2C(=O)N(Cc3ccc(F)cc3)C[C@H]2C1 | -9.157 | -2.636 | 3.779
CC1NC(=O)COC12CCN(C(=O)Cc1ccsc1)CC2 (stereo not drawn) | -4.874 | 0.5394 | -0.8014
CC(C)(C)CC(=O)N1[C@@H](c2ccco2)[C@@H](CO)C[C@]12CCCCNC2=O | 7.019 | - | 8.276
COCc1nc(C(=O)N2CCCC2c2ccc(OC)cc2)cs1 (stereo not drawn) | 10.46 | 0.8946 | -1.366
O=C(Nc1ccc(F)c(Br)c1)N1CCCC1 | -7.98 | -5.066 | 9.959
CCCc1nnsc1C(=O)NCC1CCN(c2ncccn2)CC1 | -1.513 | -0.9382 | 7.111
Cc1ccc2c(n1)N(CC(C)C)CCN(C(=O)Cc1ccccn1)C2 | 2.072 | -4.026 | 3.829
COc1ccc(C2C3=C(CCCC3=O)Nc3nc(SC)nc(N)c32)cc1 (stereo not drawn) | 1.634 | -0.8974 | 2.301
Cn1cc(CNCC(c2ccc(Cl)cc2)n2cccn2)cn1 (stereo not drawn) | -15.35 | -4.575 | 0.7578
CC(C)(C)n1ncc2c(=O)n(CC(=O)NCCc3ccccc3)cnc21 | 6.691 | -3.267 | 0.3735
O=C(C1CCOCC1)N1CCc2ncc(CN3CCOCC3)n2CC1 | -11.28 | -4.222 | 3.874
CNC(=O)N1CC[C@@H]2CN(Cc3ccccc3)S(=O)(=O)[C@@H]2CC1 | -2.319 | - | 0.723
CCn1cc(N2Cc3nc(N4CCC(C)CC4)ncc3C2=O)cn1 | -9.727 | 0.6477 | -1.255
CSc1ccc(C(=O)N2CCCC(Nc3ccc(F)cc3)C2)cc1 (stereo not drawn) | -7.411 | 1.377 | 3.248
NC(=O)CC1CC2(CCNCC2)c2cc(F)ccc21 (stereo not drawn) | -13.07 | - | 1.25
Cc1ccc(N2CCO[C@H]3CN(Cc4ccccn4)C[C@H]32)nn1 | -8.739 | -10.62 | 2.206
CCc1nc2n(n1)CC(NCc1cc(OC)c3c(c1)OCO3)CC2 (stereo not drawn) | -4.622 | 0.8702 | -0.5118
Cc1cnn(CCNCc2c(C)nn(C)c2Cl)c1 | -3.829 | 1.521 | 3.888
CSc1ccccc1CN1CCCn2nc(CNC(=O)N(C)C)cc2C1 | -13.4 | 2.637 | -0.6375
c1cnc(N2CCOCC3(CN(Cc4nccs4)CCO3)C2)nc1 (stereo not drawn) | 1.88 | -3.904 | -0.4456
O=C(N[C@@H]1CN(Cc2ccc(F)c(F)c2)C[C@H]1O)c1cscn1 | -6.96 | - | 1.201
COc1ccc(C2CCCCCN2S(C)(=O)=O)cc1 (stereo not drawn) | -9 | -2.867 | -3.215
Cc1ccc(S(=O)(=O)NC[C@H]2OC[C@@H](NCc3ccccc3)[C@@H]2O)cc1 | -2.159 | 0.6829 | 2.472
CCOC(=O)NCCC(=O)NCc1ccc(Oc2ccc(F)cc2)nc1 | -0.5481 | -0.7158 | 3.717
O=S(=O)(c1ccccc1)N1CCC2(CCCN2Cc2cccnc2)C1 (stereo not drawn) | 6.014 | 3.127 | 0.6717
Cc1ncsc1CN1C[C@H]2CC[C@@H]1CN(Cc1ccccc1)C2 | 6.23 | -1.941 | -0.07127
CCc1cnc(N)nc1NC(C)c1cnn(C)c1 (stereo not drawn) | -12.01 | -3.294 | 0.3872
CS(=O)(=O)NC1CCN(C(=O)NCc2ccccn2)CC1 | -57.7 | -2.322 | 0.3204
O=C(NCc1ccccc1F)Nc1ccn(CCN2CCOCC2)n1 | -15.21 | -1.505 | -1.313
CCCc1nc(C(=O)NCCCn2nnc3ccccc32)cs1 | -3.56 | -1.41 | 4.162
N#CC1(C(=O)N2CCOC(c3ccc(F)cc3)C2)CCCCC1 (stereo not drawn) | 13.89 | -0.4045 | 3.16
CCO[C@H]1C[C@@H](O)C12CCN(C(=O)CCN1CCCC1=O)CC2 | -11.72 | 3.382 | 0.1508
CN1CCCC(Cc2cncc(C(=O)N3CCOCC3)c2)C1 (stereo not drawn) | -12.07 | - | -1.635
Cc1ccccc1-n1cc(C2=CCN(CCN3CCOCC3)CC2)cn1 | -10.05 | 2.183 | 2.002
CC(C)(C)c1ncc(C(=O)NCCNC(=O)c2ccc(O)cc2)s1 | -34.28 | -6.383 | 3.181
CC(=O)N1CCCN(c2cc(C3CN(C)CCO3)nc(C)n2)CC1 (stereo not drawn) | -18.12 | - | -2.442
Cc1cccc(N2N=C(C(=O)NC(C)Cn3cccn3)CCC2=O)c1 (stereo not drawn) | 0.1533 | 2.973 | 4.462
CC(CNC(=O)c1ccc(C#N)cc1)N1CCc2ccccc21 (stereo not drawn) | -12.68 | 0.3127 | 1.54
Cc1cccc(N2CCC(N3CCCC4(CNC(=O)O4)C3)CC2)c1C (stereo not drawn) | 12.69 | -3.865 | 9.185
COc1ccc(CNC(=O)NC(C)(CO)C2CC2)c(C(F)(F)F)c1 (stereo not drawn) | 9.421 | 0.2867 | 7.535
Cc1cc(C)cc(CN2CCN(C(=O)COCC3CCCO3)CC2=O)c1 (stereo not drawn) | 0.5246 | -6.137 | 2.058
CCn1cc(NC(=O)C2CCC(=O)N2Cc2ccco2)cn1 (stereo not drawn) | 7.407 | 0.75 | 12.49
O=C(O)[C@@]12CN(c3cnccn3)C[C@@H]1CN(C1CCOCC1)C2 | -12.29 | -0.9183 | -1.274
Cc1ccc(C2(CN3CCN(Cc4cnc(C)n4C)CC3)CC2)cc1 | -6.464 | 13.19 | 1.159
CCOCC1CN(Cc2cnn(C)c2)Cc2nn(C)cc21 (stereo not drawn) | -11.56 | 2.397 | -1.14
CCN(CC)C(=O)[C@@H]1C[C@@H](n2cc(-c3cccc(OC)c3)nn2)CN1 | -0.9035 | -5.301 | 3.761
COc1cccc(CNC(=O)Cn2ccc3c(C)nn(C)c3c2=O)c1 | -4.773 | 3.577 | 4.803
CN(c1ccccc1)S(=O)(=O)c1cc2c(c(C(=O)O)c1)OCCO2 | -2.713 | 1.854 | 3.717
CCn1c(-c2ccccc2)nn(CC(=O)NCCc2ccc(C)o2)c1=O | -0.2293 | -0.08374 | 8.254
Cc1cc(NC(=O)CCN2CCCCC2Cn2cccn2)no1 (stereo not drawn) | -1.88 | -0.3313 | -0.02755
CN(C)Cc1nc2c(o1)CN(C(=O)NCc1cccc(F)c1)C2 | -9.353 | -2.745 | -2.069
CCCn1ncc(C(=O)N2CCN(C3CCSCC3)CC2)c1C | -4.874 | -0.5162 | 1.971
COC(=O)c1ccc(CNC(=O)CN2C[C@@H](NC(C)=O)[C@H](C(C)C)C2)o1 | 1.508 | 0.5435 | 8.069
COCCN(C(=O)c1c[nH]c2ncccc12)C1CCCC1 | -6.733 | 0.3276 | -0.7102
COCCN(C)C[C@@H]1CN(C(=O)c2ccc(OC)c(F)c2)C[C@@H]1CO | 1.002 | 0.2935 | 6.803
COCCN(CCOC)C(=O)c1cnn(C)c1C | -8.261 | 0.08937 | 5.191
O=C([C@@H]1CCS(=O)(=O)[C@@H]2CN(c3ncccn3)C[C@@H]21)N1CCOCC1 | 17.8 | - | 1.775
N#CC1(NC(=O)COC(=O)Cc2cc(Cl)c3c(c2)OCCO3)CCCC1 | 10.49 | 2.824 | -2.425
CC(=O)c1cn(CC(=O)NC(C(=O)O)C(C)C)c2ccccc12 (stereo not drawn) | -11.2 | -1.243 | -2.937
CC(C)c1cc(COCCC(=O)O)no1 | -1.302 | - | 2.832
c1ccc(CNC[C@H]2Cn3ccnc3CO2)cc1 | 2.7 | -7.967 | 3.783
Cc1cccc(CN2CCC3(CCN(c4cccnc4)C3=O)C2)n1 (stereo not drawn) | 7.371 | 0.1627 | 6.442
COc1c(CNC(C)C(=O)NC2CCCC2)c(C)nn1C (stereo not drawn) | 4.564 | -3.271 | 13.94
O=C(O)c1cc(-c2cccnc2)cc(S(=O)(=O)NCc2ccccn2)c1 | -2.172 | -3.667 | 5.506
Cc1nn(C)c(N2CCOCC2)c1CN[C@@H]1c2ccccc2C[C@@H]1O | -12.06 | -6.648 | -0.1579
COCCNC(=O)c1cc(-c2ccc3c(c2)CCO3)n[nH]1 | -11.23 | -1.611 | 1.067
COCCN(C)CC1CCCN1S(=O)(=O)c1cc(C)oc1C (stereo not drawn) | 6.749 | -1.125 | 3.112
COCC(=O)N1C[C@@H]2OCCN(Cc3c(C)noc3C)[C@@H]2C1 | 6.946 | 0.09588 | 1.496
Cc1ccc(N2CC[C@H]3OCC[C@@]3(C(=O)N(C)C)C2)nn1 | -7.746 | -2.714 | 0.2452
Cc1nn(C)c(N(C)C)c1CNCC(O)COc1cccc(F)c1 (stereo not drawn) | -4.753 | -0.1937 | -0.9574

The first 4 entries again:

For CCOCC(O)CN1CCN(C(=O)C2CCCCC2)CC1 (stereo not drawn) the result was ClpP1P2: -16.39%; MtTrpRS: -4.944%; PfKRS1: -0.8257%.
For O=C(O)C1c2nc[nH]c2CCN1Cc1cc(-c2ccccc2)no1 (stereo not drawn) the result was ClpP1P2: -20.2%; MtTrpRS: 4.816%; PfKRS1: -1.994%.
For COCCn1cncc1Cn1ncc2ccccc2c1=O the result was ClpP1P2: 4.512%; MtTrpRS: -3.915%; PfKRS1: 0.489%.
For COCCN1C[C@@H](C)[C@@]2(COCCN(C(=O)c3ccoc3)C2)C1 the result was ClpP1P2: -7.414%; MtTrpRS: -7.528%; PfKRS1: 6.946%.